Measured values reported in PubChem BioAssay AID256 (DTP/NCI, 2004).
The list shows only some results of the screen, not a fair sample: it gathers tests that were run many times, whatever their T/C, doses with no T/C, and many T/C values between a quarter and a half above the control. Other doses and runs of a compound stand elsewhere. T/C is the treated group as % of the vehicle group. Some doses have a count of surviving animals in place of a T/C: the source files T/C as zero there, which appears to mark a toxic dose or a test without result, not a measured value. Some survivor counts are full or nearly so, which does not show that the dose was tolerated: the source hardly ever lists a survival T/C far under the control, and the zero likely stands for such cases as well. Survivors were counted at the toxicity check, usually on the fifth day, unless a day is given; later deaths do not show. Schedule codes are those of the source, taken here to give the interval after Q, in days (D) or hours (H), and the number of doses after X. Some entries hold several experiments; their values stand side by side, smallest first. Where survival is the endpoint, the PubChem record calls one and a half times the control and up active, and a quarter to a half above the control has no call in these data; cut-offs in other NCI protocols can differ. Some T/C values carry the count of animals alive at the toxicity check (mostly the fifth day); without a count, all were alive then.

System: CD2F1 mice, L1210 leukemia ip, survival T/C
Test: NCI In Vivo Anticancer Drug Screen. Data for tumor model L1210 Leukemia (intraperitoneal) in CD2F1 (CDF1) mice
Details: higher T/C = longer survival
Procedure, shortened: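 Mice carrying a transplanted tumor received test compound or vehicle alone. The value is the measurement in the treated group divided by that in the vehicle-treated control group.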

[1] = T/C endpoint: mean survival time, dose: 400.0 mg/kg/injection, schedule: Q04DX003 (ip), vehicle: saline with Tween-80
[2] = T/C endpoint: mean survival time, dose: 100.0 mg/kg/injection, schedule: Q04DX003 (ip), vehicle: saline with Tween-80
[3] = T/C endpoint: mean survival time, dose: 200.0 mg/kg/injection, schedule: Q04DX003 (ip), vehicle: saline with Tween-80

SMILES: CCOC(OCC)c1nc(N)nc(N)c1-c1ccc(Cl)c(Cl)c1
- T/C (T/C endpoint: mean survival time, dose: 89.0 mg/kg/injection, schedule: Q01DX009 (ip), vehicle: other): 131 % of control

SMILES: Cn1c(CC(O)(C(F)(F)Cl)C(F)(F)Cl)cc(=O)n1-c1ccccc1
- survivor count (T/C endpoint: mean survival time, dose: 400.0 mg/kg/injection, schedule: Q01DX009 (ip), vehicle: saline with Tween-80): 3 of 6

SMILES: CSCCC(C)(C)C
- survivor count (T/C endpoint: mean survival time, dose: 150.0 mg/kg/injection, schedule: Q01DX001 (ip), vehicle: saline): 1 of 6
- survivor count (T/C endpoint: mean survival time, dose: 300.0 mg/kg/injection, schedule: Q01DX001 (ip), vehicle: saline): 0 of 6

SMILES: CC(C)COCCCN
- survivor count (T/C endpoint: mean survival time, dose: 200.0 mg/kg/injection, schedule: Q04DX003 (ip), vehicle: saline): 0 of 6
- survivor count (T/C endpoint: mean survival time, dose: 400.0 mg/kg/injection, schedule: Q04DX003 (ip), vehicle: saline): 0 of 6

SMILES: CCCCCCCCCCCCCCCC1CCCC(C)N1 (centres undefined)
- survivor count (T/C endpoint: mean survival time, dose: 100.0 mg/kg/injection, schedule: Q04DX002 (ip), vehicle: saline with Tween-80): 0 of 3
- survivor count (T/C endpoint: mean survival time, dose: 200.0 mg/kg/injection, schedule: Q04DX002 (ip), vehicle: saline with Tween-80): 0 of 3
- survivor count (T/C endpoint: mean survival time, dose: 400.0 mg/kg/injection, schedule: Q04DX002 (ip), vehicle: saline with Tween-80): 0 of 3 and 1 of 3

SMILES: Nc1ncnc2c1ncn2[C@@H](C=O)O[C@@H](C=O)CO
- T/C (T/C endpoint: mean survival time, dose: 0.78 mg/kg/injection, schedule: Q01DX009 (ip), vehicle: saline with Tween-80): 128 % of control
- T/C (T/C endpoint: mean survival time, dose: 1.56 mg/kg/injection, schedule: Q01DX005 (ip), vehicle: other): 125 % of control
- T/C (T/C endpoint: mean survival time, dose: 1.56 mg/kg/injection, schedule: Q01DX009 (ip), vehicle: saline with Tween-80): 140 % of control
- T/C (T/C endpoint: mean survival time, dose: 3.13 mg/kg/injection, schedule: Q01DX005 (ip), vehicle: other): 137 % of control
- T/C (T/C endpoint: mean survival time, dose: 6.25 mg/kg/injection, schedule: Q01DX005 (ip), vehicle: other): 141 % of control
- T/C (T/C endpoint: mean survival time, dose: 12.5 mg/kg/injection, schedule: Q01DX005 (ip), vehicle: other): 132 % of control [4 of 6 alive]
- survivor count (T/C endpoint: mean survival time, dose: 25.0 mg/kg/injection, schedule: Q01DX005 (ip), vehicle: other): 3 of 6
- survivor count (T/C endpoint: mean survival time, dose: 25.0 mg/kg/injection, schedule: Q01DX005 (ip), vehicle: saline with Tween-80): 3 of 6
- survivor count (T/C endpoint: mean survival time, dose: 50.0 mg/kg/injection, schedule: Q01DX005 (ip), vehicle: other): 1 of 6
- survivor count (T/C endpoint: mean survival time, dose: 50.0 mg/kg/injection, schedule: Q01DX005 (ip), vehicle: saline with Tween-80): 0 of 6
- survivor count (T/C endpoint: mean survival time, dose: 100.0 mg/kg/injection, schedule: Q01DX005 (ip), vehicle: other): 0 of 6
- survivor count (T/C endpoint: mean survival time, dose: 100.0 mg/kg/injection, schedule: Q01DX005 (ip), vehicle: saline with Tween-80): 1 of 6
- survivor count (T/C endpoint: mean survival time, dose: 200.0 mg/kg/injection, schedule: Q01DX005 (ip), vehicle: other): 0 of 6

SMILES: CC[Si](CC)(CC)c1ccc(CCNCCS)s1
- survivor count (T/C endpoint: mean survival time, dose: 150.0 mg/kg/injection, schedule: Q01DX009 (ip), vehicle: saline): 1 of 6

SMILES: O=[N+]([O-])c1ccc2ccccc2c1-c1c([N+](=O)[O-])ccc2ccccc12
- survivor count [1]: 6 of 6

SMILES: COc1cc(OC)c(NC(=O)Nc2cc(C)on2)cc1Cl
- survivor count (T/C endpoint: mean survival time, dose: 50.0 mg/kg/injection, schedule: Q01DX009 (ip), vehicle: saline with Tween-80): 3 of 3
- survivor count (T/C endpoint: mean survival time, dose: 100.0 mg/kg/injection, schedule: Q01DX009 (ip), vehicle: saline with Tween-80): 3 of 3
- survivor count (T/C endpoint: mean survival time, dose: 200.0 mg/kg/injection, schedule: Q01DX009 (ip), vehicle: saline with Tween-80): 3 of 3

SMILES: CCCN(C)C(=O)N(CCCl)N=O
- T/C (T/C endpoint: mean survival time, dose: 156.0 mg/kg/injection, schedule: Q01DX001 (ip), vehicle: other): 128 % of control

SMILES: CC(/C=C/C1OC(=O)C=CC1C)=C\C(C)C/C=C/C(C)=C/C(C)C(=O)C(C)C(O)C(C)C/C(C)=C/C(=O)O (centres undefined)
- T/C (T/C endpoint: median survival time, dose: 41.7 micrograms/kg/injection, schedule: Q01DX009 (ip), vehicle: saline + alcohol): 131 % of control
- T/C (T/C endpoint: median survival time, dose: 69.4 micrograms/kg/injection, schedule: Q01DX009 (ip), vehicle: saline + alcohol): 128 % of control

SMILES: N#CCN1CCc2ccccc2C1
- survivor count (T/C endpoint: mean survival time, dose: 400.0 mg/kg/injection, schedule: Q04DX003 (ip), vehicle: Klucel (hydroxypropylcellulose) (HPC)): 5 of 6

SMILES: Nc1nc(SCc2ccccc2)c2[nH]cnc2n1
- T/C (T/C endpoint: mean survival time, dose: 15.6 mg/kg/injection, schedule: Q01DX009 (ip), vehicle: saline): 149 % of control
- T/C (T/C endpoint: mean survival time, dose: 37.5 mg/kg/injection, schedule: Q01DX007 (ip), vehicle: saline): 133 % of control
- T/C (T/C endpoint: mean survival time, dose: 37.5 mg/kg/injection, schedule: Q01DX009 (ip), vehicle: saline): 142 % of control
- T/C (T/C endpoint: mean survival time, dose: 75.0 mg/kg/injection, schedule: Q01DX007 (ip), vehicle: saline): 136 % of control
- T/C (T/C endpoint: mean survival time, dose: 75.0 mg/kg/injection, schedule: Q01DX009 (ip), vehicle: saline): 140 % of control
- T/C (T/C endpoint: mean survival time, dose: 75.0 mg/kg/injection, schedule: Q03DX003 (ip), vehicle: saline): 148 % of control
- T/C (T/C endpoint: mean survival time, dose: 125.0 mg/kg/injection, schedule: Q01DX009 (ip), vehicle: saline): 146 % of control [5 of 6 alive]
- survivor count (T/C endpoint: mean survival time, dose: 150.0 mg/kg/injection, schedule: Q04DX003 (ip), vehicle: saline): 3 of 6
- survivor count (T/C endpoint: median survival time, dose: 250.0 mg/kg/injection, schedule: Q01DX009 (ip), vehicle: saline): 3 of 6

SMILES: O=[N+]([O-])c1ccc(Cl)c2ncccc12
- survivor count [1]: 1 of 3

SMILES: O=C(CCN1CCCCC1)c1ccccc1
- survivor count [2]: 0 of 6
- survivor count [3]: 0 of 6
- survivor count [1]: 0 of 6

SMILES: CC[NH-].[Cl][Pt+2][Cl].[NH-]C1CC1
- T/C (T/C endpoint: mean survival time, dose: 1.56 mg/kg/injection, schedule: Q04DX003 (ip), vehicle: water): 132 % of control
- T/C (T/C endpoint: mean survival time, dose: 3.13 mg/kg/injection, schedule: Q04DX003 (ip), vehicle: water): 130 % of control
- T/C (T/C endpoint: mean survival time, dose: 6.25 mg/kg/injection, schedule: Q04DX003 (ip), vehicle: distilled water + Tween-80): 130 % of control
- T/C (T/C endpoint: mean survival time, dose: 6.25 mg/kg/injection, schedule: Q04DX003 (ip), vehicle: water): 136 % of control
- survivor count (T/C endpoint: mean survival time, dose: 12.5 mg/kg/injection, schedule: Q04DX003 (ip), vehicle: distilled water + Tween-80): 6 of 6
- survivor count (T/C endpoint: mean survival time, dose: 12.5 mg/kg/injection, schedule: Q04DX003 (ip), vehicle: water): 5 of 6
- survivor count (T/C endpoint: mean survival time, dose: 25.0 mg/kg/injection, schedule: Q04DX003 (ip), vehicle: distilled water + Tween-80): 4 of 6
- survivor count (T/C endpoint: mean survival time, dose: 50.0 mg/kg/injection, schedule: Q04DX003 (ip), vehicle: distilled water + Tween-80): 0 of 6
- survivor count (T/C endpoint: mean survival time, dose: 100.0 mg/kg/injection, schedule: Q04DX003 (ip), vehicle: distilled water + Tween-80): 0 of 6
- survivor count (T/C endpoint: mean survival time, dose: 200.0 mg/kg/injection, schedule: Q04DX003 (ip), vehicle: distilled water + Tween-80): 0 of 6

SMILES: Cc1ccc(S(=O)(=O)/C=C(\Cl)S(=O)(=O)C(C)(C)C)cc1
- survivor count (T/C endpoint: mean survival time, dose: 100.0 mg/kg/injection, schedule: Q01DX001 (ip), vehicle: saline with Tween-80): 0 of 3 and 2 of 3
- survivor count (T/C endpoint: mean survival time, dose: 200.0 mg/kg/injection, schedule: Q01DX001 (ip), vehicle: saline with Tween-80): 0 of 3
- survivor count (T/C endpoint: mean survival time, dose: 400.0 mg/kg/injection, schedule: Q01DX001 (ip), vehicle: saline with Tween-80): 0 of 3

SMILES: CCC[CH2][Sn]([CH2]CC)([CH2]CCC)[O]C(=O)c1ccccc1
- survivor count (T/C endpoint: mean survival time, dose: 3.13 mg/kg/injection, schedule: Q01DX009 (ip), vehicle: saline with Tween-80): 1 of 3

SMILES: NC1CCCCCCC1O (centres undefined)
- survivor count (T/C endpoint: mean survival time, dose: 100.0 mg/kg/injection, schedule: Q01DX001 (ip), vehicle: saline sonified): 0 of 6
- survivor count (T/C endpoint: mean survival time, dose: 200.0 mg/kg/injection, schedule: Q01DX001 (ip), vehicle: saline sonified): 0 of 6
- survivor count (T/C endpoint: mean survival time, dose: 400.0 mg/kg/injection, schedule: Q01DX001 (ip), vehicle: saline sonified): 0 of 6

SMILES: [N-]=[N+]=Nc1ccccc1C(=O)NCc1cnc(N)nc1N
- survivor count [1]: 6 of 6

SMILES: O=C1C=CC(=O)N1c1ccc(O)cc1
- survivor count (T/C endpoint: mean survival time, dose: 10.0 mg/kg/injection, schedule: Q04DX003 (ip), vehicle: saline with Tween-80): 0 of 6
- survivor count (T/C endpoint: mean survival time, dose: 20.0 mg/kg/injection, schedule: Q04DX003 (ip), vehicle: saline with Tween-80): 0 of 6
- survivor count [2]: 0 of 6
- survivor count [3]: 0 of 6
- survivor count [1]: 0 of 6

SMILES: COc1cc(C)n2nnnc2n1
- survivor count (T/C endpoint: mean survival time, dose: 200.0 mg/kg/injection, schedule: Q01DX001 (ip), vehicle: saline): 0 of 3
- survivor count (T/C endpoint: mean survival time, dose: 400.0 mg/kg/injection, schedule: Q01DX001 (ip), vehicle: saline): 0 of 3
